Assay results as given in PMC11369598.
Numbering of substitutions follows the chain as printed. Read-outs that look alike come from different tables or passages of the source. Results are given in words; binding and its absence hold for the method and conditions named. Binding seen in cells or lysates may run through a third protein. These calls come from enrichment with a bait or labelling near it, and not all partners need be listed. Where a sequence is shown, tags or fusion partners need not be part of it.

Sequences of proteins named here, by UniProt entry; tags and fusion partners are left off. Residues count along the entry.
UniProt P11912, residues 33-226: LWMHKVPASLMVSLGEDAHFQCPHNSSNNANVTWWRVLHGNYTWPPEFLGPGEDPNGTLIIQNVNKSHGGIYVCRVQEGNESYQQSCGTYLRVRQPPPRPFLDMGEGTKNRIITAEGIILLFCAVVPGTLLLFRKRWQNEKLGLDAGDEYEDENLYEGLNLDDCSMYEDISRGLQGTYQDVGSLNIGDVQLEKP
UniProt Q15843, residues 1-76: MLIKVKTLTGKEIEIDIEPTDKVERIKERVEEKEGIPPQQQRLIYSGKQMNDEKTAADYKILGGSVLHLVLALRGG
UniProt Q14571: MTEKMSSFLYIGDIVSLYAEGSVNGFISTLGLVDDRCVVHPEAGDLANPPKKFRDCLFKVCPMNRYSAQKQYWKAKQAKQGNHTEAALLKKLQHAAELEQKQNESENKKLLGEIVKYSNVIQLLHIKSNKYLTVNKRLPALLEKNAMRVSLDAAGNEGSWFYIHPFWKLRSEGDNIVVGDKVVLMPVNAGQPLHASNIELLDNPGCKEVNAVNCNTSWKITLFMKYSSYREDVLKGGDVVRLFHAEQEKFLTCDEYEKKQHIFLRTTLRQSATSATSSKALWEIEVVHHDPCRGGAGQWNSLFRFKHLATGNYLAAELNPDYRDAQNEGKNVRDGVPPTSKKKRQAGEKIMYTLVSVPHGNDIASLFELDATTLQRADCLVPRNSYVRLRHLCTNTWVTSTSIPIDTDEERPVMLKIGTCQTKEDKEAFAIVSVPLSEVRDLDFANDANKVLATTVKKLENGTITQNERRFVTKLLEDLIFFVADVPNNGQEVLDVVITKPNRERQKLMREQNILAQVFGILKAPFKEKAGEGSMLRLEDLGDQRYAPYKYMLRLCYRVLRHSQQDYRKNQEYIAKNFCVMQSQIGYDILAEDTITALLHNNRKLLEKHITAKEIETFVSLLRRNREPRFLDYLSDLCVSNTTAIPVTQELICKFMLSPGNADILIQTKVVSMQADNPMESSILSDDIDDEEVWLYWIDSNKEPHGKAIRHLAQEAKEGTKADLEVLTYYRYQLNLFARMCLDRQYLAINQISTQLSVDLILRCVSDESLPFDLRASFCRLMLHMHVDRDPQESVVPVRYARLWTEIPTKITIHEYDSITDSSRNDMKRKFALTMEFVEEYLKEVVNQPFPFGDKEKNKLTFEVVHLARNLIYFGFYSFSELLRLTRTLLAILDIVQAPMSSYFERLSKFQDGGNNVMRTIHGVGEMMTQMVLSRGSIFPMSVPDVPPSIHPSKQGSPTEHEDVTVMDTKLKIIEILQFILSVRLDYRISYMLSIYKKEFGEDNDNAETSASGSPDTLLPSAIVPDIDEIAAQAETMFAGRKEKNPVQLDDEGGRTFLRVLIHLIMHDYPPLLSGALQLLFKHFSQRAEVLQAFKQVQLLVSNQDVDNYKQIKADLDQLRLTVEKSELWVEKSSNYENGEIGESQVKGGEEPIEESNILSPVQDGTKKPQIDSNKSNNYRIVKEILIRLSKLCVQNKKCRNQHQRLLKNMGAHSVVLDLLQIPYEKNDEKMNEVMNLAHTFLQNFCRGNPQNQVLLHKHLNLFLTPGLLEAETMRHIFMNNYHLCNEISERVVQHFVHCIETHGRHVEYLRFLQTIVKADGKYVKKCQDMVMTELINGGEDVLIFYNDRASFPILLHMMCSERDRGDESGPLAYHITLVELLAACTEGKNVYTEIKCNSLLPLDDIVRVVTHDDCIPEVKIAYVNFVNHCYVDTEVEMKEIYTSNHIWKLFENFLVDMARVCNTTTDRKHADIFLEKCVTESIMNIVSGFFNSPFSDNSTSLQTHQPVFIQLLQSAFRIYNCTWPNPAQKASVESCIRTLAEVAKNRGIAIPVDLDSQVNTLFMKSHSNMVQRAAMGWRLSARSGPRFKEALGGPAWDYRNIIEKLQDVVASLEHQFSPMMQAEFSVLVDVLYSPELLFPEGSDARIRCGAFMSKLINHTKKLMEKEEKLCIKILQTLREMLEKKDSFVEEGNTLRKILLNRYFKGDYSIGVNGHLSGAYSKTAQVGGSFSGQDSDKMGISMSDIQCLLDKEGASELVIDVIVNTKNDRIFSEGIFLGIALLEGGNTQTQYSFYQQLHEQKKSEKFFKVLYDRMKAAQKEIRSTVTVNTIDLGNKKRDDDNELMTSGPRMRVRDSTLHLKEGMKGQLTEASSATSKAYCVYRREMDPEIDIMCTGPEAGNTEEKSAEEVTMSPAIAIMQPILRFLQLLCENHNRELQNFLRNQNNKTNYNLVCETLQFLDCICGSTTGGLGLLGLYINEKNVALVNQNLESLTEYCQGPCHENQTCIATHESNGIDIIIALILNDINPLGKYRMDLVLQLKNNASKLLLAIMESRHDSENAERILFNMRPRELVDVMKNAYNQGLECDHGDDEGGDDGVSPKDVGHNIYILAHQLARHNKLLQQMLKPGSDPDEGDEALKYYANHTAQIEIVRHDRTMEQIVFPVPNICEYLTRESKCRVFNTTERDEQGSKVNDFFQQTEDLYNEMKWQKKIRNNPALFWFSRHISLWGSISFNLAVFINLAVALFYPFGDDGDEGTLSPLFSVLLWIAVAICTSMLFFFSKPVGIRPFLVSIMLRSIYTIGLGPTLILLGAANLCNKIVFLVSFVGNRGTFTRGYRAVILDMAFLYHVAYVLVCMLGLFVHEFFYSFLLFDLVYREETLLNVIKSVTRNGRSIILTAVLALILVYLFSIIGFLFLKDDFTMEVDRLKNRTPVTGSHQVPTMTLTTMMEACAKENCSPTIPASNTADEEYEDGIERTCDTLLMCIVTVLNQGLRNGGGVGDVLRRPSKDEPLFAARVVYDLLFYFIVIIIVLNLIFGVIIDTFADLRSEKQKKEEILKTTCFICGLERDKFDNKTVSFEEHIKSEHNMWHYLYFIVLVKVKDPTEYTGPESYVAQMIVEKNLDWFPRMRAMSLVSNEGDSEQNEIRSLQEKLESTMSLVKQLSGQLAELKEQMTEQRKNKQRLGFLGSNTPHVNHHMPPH

Key:
[1] = molecular target: T1, KLHL6 wild type fused to C-terminal BioID2 (human) (UniProt Q8WZ60); assay: proximity labelling; KLHL6 baits with C-terminal BioID2 stably expressed in SuDHL5, no added biotin; lysis with 0.1% SDS; biotinylated proteins purified on Strep-Tactin Sepharose; mass spectrometry; BioID2-tagged EmGFP controls
T1 sequence: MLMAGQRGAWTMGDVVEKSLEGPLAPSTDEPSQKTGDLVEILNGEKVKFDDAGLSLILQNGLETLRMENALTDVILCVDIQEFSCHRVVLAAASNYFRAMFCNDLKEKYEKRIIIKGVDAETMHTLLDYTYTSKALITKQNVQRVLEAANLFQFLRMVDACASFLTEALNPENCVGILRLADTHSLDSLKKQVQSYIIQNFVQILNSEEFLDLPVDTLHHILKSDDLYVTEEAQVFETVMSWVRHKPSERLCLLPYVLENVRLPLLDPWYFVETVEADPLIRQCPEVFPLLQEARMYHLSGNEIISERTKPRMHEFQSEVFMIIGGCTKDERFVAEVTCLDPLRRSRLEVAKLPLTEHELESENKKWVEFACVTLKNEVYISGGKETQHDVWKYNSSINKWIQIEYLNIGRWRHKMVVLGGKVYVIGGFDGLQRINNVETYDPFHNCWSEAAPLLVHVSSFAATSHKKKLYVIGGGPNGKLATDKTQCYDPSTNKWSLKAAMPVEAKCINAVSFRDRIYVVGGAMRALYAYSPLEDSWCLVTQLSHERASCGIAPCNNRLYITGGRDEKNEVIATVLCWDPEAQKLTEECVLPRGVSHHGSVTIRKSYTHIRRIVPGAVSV

[2] = molecular target: T2, KLHL6 E568K, C-terminal Strep-HA tag (human) (UniProt Q8WZ60); assay: affinity purification with mass spectrometry; C-terminally Strep-HA-tagged KLHL6 baits stably expressed in SuDHL5; lysis in 0.5% IGEPAL, 50 mmol/L HEPES pH 8.0, 150 mmol/L NaCl, 5 mmol/L EDTA; one-step purification on Strep-Tactin Sepharose; EmGFP controls; SAINT and DESeq2; also done 60 seconds after BCR cross-linking with anti-human IgM F(ab')2 or control goat IgG
T2 sequence: T1 sequence with E568K

[3] = molecular target: T3, KLHL6 wild type, C-terminal Strep-HA tag (KLHL6-strHA) (human) (UniProt Q8WZ60); assay: as above
T3 sequence: T1 sequence

[4] = molecular target: T3, KLHL6 wild type, C-terminal Strep-HA tag (KLHL6-strHA) (human); assay: as above; remark: listed apart in the source

CD79A (from UniProt P11912 33-226)
binding [1]: binds | binding [2]: binds | binding [3]: binds

Nedd8 (from UniProt Q15843 1-76)
binding [2]: binds

inositol 1,4,5-trisphosphate (IP3) receptor type 2 (ITPR2) (from UniProt Q14571 1-2701)
binding [1]: binds

B1: Kelch-chaperone NuDCD3 (protein, UniProt Q8IVD9 1-361)
chain: METGAAELYDQALLGILQHVGNVQDFLRVLFGFLYRKTDFYRLLRHPSDRMGFPPGAAQALVLQVFKTFDHMARQDDEKRRQELEEKIRRKEEEEAKTVSAAAAEKEPVPVPVQEIEIDSTTELDGHQEVEKVQPPGPVKEMAHGSQEAEAPGAVAGAAEVPREPPILPRIQEQFQKNPDSYNGAVRENYTWSQDYTDLEVRVPVPKHVVKGKQVSVALSSSSIRVAMLEENGERVLMEGKLTHKINTESSLWSLEPGKCVLVNLSKVGEYWWNAILEGEEPIDIDKINKERSMATVDEEEQAVLDRLTFDYHQKLQGKPQSHELKVHEMLKKGWDAEGSPFRGQRFDPAMFNISPGAVQF
binding [4]: binds

B2: SUGT1 (protein, UniProt Q9Y2Z0 1-365)
chain: MAAAAAGTATSQRFFQSFSDALIDEDPQAALEELTKALEQKPDDAQYYCQRAYCHILLGNYCVAVADAKKSLELNPNNSTAMLRKGICEYHEKNYAAALETFTEGQKLDIETGFHRVGQAGLQLLTSSDPPALDSQSAGITGADANFSVWIKRCQEAQNGSESEVWTHQSKIKYDWYQTESQVVITLMIKNVQKNDVNVEFSEKELSALVKLPSGEDYNLKLELLHPIIPEQSTFKVLSTKIEIKLKKPEAVRWEKLEGQGDVPTPKQFVADVKNLYPSSSPYTRNWDKLVGEIKEEEKNEKLEGDAALNRLFQQIYSDGSDEVKRAMNKSFMESGGTVLSTNWSDVGKRKVEINPPDDMEWKKY
binding [4]: binds

B3: Roquin-2 (protein, UniProt Q9HBD1 1-1191)
chain: MPVQAAQWTEFLSCPICYNEFDENVHKPISLGCSHTVCKTCLNKLHRKACPFDQTAINTDIDVLPVNFALLQLVGAQVPDHQSIKLSNLGENKHYEVAKKCVEDLALYLKPLSGGKGVASLNQSALSRPMQRKLVTLVNCQLVEEEGRVRAMRAARSLGERTVTELILQHQNPQQLSANLWAAVRARGCQFLGPAMQEEALKLVLLALEDGSALSRKVLVLFVVQRLEPRFPQASKTSIGHVVQLLYRASCFKVTKRDEDSSLMQLKEEFRSYEALRREHDAQIVHIAMEAGLRISPEQWSSLLYGDLAHKSHMQSIIDKLQSPESFAKSVQELTIVLQRTGDPANLNRLRPHLELLANIDPNPDAVSPTWEQLENAMVAVKTVVHGLVDFIQNYSRKGHETPQPQPNSKYKTSMCRDLRQQGGCPRGTNCTFAHSQEELEKYRLRNKKINATVRTFPLLNKVGVNNTVTTTAGNVISVIGSTETTGKIVPSTNGISNAENSVSQLISRSTDSTLRALETVKKVGKVGANGQNAAGPSADSVTENKIGSPPKTPVSNVAATSAGPSNVGTELNSVPQKSSPFLTRVPVYPPHSENIQYFQDPRTQIPFEVPQYPQTGYYPPPPTVPAGVAPCVPRFVRSNNVPESSLPPASMPYADHYSTFSPRDRMNSSPYQPPPPQPYGPVPPVPSGMYAPVYDSRRIWRPPMYQRDDIIRSNSLPPMDVMHSSVYQTSLRERYNSLDGYYSVACQPPSEPRTTVPLPREPCGHLKTSCEEQIRRKPDQWAQYHTQKAPLVSSTLPVATQSPTPPSPLFSVDFRADFSESVSGTKFEEDHLSHYSPWSCGTIGSCINAIDSEPKDVIANSNAVLMDLDSGDVKRRVHLFETQRRTKEEDPIIPFSDGPIISKWGAISRSSRTGYHTTDPVQATASQGSATKPISVSDYVPYVNAVDSRWSSYGNEATSSAHYVERDRFIVTDLSGHRKHSSTGDLLSLELQQAKSNSLLLQREANALAMQQKWNSLDEGRHLTLNLLSKEIELRNGELQSDYTEDATDTKPDRDIELELSALDTDEPDGQSEPIEEILDIQLGISSQNDQLLNGMAVENGHPVQQHQKEPPKQKKQSLGEDHVILEEQKTILPVTSCFSQPLPVSISNASCLPITTSVSAGNLILKTHVMSEDKNDFLKPVANGKMVNS
binding [4]: binds
